Article PMC4123598

Chains of the proteins cited; added tags and fusions are not shown.
UniProt O00255: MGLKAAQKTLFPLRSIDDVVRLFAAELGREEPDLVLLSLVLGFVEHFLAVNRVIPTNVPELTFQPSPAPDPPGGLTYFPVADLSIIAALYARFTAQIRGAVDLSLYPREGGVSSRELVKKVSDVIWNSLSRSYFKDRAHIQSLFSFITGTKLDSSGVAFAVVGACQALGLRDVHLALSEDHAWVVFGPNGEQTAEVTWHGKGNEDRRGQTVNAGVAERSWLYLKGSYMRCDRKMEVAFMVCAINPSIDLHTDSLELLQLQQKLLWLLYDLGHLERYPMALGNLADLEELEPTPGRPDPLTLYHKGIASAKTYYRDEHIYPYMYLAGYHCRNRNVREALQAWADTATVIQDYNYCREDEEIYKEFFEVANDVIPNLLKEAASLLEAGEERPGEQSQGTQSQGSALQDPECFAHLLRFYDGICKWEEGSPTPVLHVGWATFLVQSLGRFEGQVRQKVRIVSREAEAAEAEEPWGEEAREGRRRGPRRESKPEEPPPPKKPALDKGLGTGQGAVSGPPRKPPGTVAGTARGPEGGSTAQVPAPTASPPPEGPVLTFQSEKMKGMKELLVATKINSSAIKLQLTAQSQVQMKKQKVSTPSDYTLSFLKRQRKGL
UniProt Q9UBL3: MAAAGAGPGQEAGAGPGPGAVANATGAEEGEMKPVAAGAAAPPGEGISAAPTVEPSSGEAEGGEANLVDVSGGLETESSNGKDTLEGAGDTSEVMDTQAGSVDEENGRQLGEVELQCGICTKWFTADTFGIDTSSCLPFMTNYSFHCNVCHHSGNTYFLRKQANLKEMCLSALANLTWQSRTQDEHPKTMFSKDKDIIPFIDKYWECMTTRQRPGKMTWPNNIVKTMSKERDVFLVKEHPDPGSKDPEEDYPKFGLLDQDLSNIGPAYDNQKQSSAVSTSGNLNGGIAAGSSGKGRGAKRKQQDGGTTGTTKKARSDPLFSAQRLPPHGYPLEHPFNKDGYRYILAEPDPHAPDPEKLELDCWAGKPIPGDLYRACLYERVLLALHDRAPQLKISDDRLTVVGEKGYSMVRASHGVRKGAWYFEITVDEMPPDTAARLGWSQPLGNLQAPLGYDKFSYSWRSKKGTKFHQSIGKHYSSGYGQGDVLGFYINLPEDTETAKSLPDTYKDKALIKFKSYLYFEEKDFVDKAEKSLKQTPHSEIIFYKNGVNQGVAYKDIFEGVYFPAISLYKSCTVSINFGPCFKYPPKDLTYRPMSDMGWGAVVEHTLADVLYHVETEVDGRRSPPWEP
UniProt Q96AE4: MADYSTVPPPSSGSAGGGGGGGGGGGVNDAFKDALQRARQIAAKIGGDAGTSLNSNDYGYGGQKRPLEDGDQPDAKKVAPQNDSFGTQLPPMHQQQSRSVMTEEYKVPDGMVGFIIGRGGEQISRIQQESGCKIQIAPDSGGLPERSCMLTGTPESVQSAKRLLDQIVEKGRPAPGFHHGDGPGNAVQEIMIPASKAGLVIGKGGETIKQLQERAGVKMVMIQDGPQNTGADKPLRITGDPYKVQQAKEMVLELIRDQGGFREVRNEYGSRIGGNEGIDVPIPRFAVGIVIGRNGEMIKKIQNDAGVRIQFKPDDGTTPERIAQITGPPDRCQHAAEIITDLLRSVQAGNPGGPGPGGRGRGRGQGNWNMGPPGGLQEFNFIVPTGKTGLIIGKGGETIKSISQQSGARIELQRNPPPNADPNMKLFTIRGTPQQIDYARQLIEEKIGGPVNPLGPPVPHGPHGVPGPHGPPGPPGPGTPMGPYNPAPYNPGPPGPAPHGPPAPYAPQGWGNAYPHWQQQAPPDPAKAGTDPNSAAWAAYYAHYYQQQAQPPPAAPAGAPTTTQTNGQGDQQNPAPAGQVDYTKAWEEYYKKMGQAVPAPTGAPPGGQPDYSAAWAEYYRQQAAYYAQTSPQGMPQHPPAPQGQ
UniProt O75475: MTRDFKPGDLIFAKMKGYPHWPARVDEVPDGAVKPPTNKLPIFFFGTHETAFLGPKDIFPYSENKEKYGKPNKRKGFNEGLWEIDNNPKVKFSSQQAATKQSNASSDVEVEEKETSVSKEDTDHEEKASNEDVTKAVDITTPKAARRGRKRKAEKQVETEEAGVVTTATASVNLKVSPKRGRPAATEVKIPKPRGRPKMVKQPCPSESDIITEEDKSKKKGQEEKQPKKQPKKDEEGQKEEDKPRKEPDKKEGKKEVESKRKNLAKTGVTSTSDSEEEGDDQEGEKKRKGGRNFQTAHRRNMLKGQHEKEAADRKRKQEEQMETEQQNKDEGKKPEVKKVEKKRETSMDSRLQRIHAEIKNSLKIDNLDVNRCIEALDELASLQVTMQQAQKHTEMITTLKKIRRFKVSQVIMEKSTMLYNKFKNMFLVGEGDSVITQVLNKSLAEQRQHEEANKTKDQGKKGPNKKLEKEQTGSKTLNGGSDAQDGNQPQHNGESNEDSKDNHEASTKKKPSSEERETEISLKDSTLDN
UniProt Q15291: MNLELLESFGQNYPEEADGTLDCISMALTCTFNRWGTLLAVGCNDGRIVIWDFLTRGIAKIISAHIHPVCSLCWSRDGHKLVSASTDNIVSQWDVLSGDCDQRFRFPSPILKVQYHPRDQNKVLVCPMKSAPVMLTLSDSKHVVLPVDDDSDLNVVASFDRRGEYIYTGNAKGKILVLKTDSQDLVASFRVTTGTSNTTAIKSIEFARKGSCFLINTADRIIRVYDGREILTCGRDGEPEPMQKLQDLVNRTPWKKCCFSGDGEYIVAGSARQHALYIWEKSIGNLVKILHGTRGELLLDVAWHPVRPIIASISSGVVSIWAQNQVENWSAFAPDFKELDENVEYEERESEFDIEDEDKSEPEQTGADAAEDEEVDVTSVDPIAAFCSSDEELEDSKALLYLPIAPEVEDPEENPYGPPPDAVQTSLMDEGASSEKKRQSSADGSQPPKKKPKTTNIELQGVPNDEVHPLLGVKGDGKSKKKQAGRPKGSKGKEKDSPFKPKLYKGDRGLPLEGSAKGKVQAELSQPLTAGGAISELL

The substances below were run against menin (human (endogenous in HeLa)) (UniProt O00255) (assay: affinity purification with mass spectrometry; large-scale immunoprecipitation of menin from HeLa nuclear extracts with the SQVb or the H-MEN1b antibody; menin specific bands analysed by electrospray ion trap mass spectrometry; unrelated antibody as control).

binding, binds:
ASH2 (from UniProt Q9UBL3 1-628)
FBP1 (from UniProt Q96AE4 1-644)
LEDGF (from UniProt O75475 1-530)
RBBP5 (from UniProt Q15291 1-538)

These are yes or no findings as the source states them, for the method shown. Binding seen in cells or lysates may run through a third protein. A yes stands for co-enrichment or nearness to the bait. Other partners may have been found.
